Among all 52,000 sequences or so, about 210 (0.4%) were called active.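 How the source made its calls: active means gene whose silencing raises cell survival under the drug, median off-target-corrected z-score across its silencing RNAs 2 or more; inactive means the rest.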 Some of the results follow.
Test: Resistance to Poly (ADP-Ribose) Polymerase inhibitor: Gene Identification via Genome-wide siRNA Screen
Conditions: mouse BRCA2 R2336H ES cells, olaparib, CellTiter-Glo viability; stronger effect = higher value
How it was run: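 Mouse BRCA2 R2336H ES cells were reverse-transfected with siRNA (20 nM final), treated at 48 h with 500 nM olaparib, and read by CellTiter-Glo after 72 h. Scores: MAD-based z per siRNA, median per gene, seed off-target correction.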

Sequence | z-score
GGAAGCUACGCUCAAUGAGTT against Dkk3 | inactive: -0.231
GGUUAUUCUGGCUAUGGGCTT against Taf15 | inactive: 1.07
GGUGAGCAAGUCGAAGAGATT against Igsf3 | inactive: -1.28
GGUAACGAUCCACUUAAAGTT against 0610040J01Rik | inactive: 0.159
GGUACUGAUCAGCAAGACGTT against 4921526F01Rik | inactive: 0.429
CCAUGCACAAUUACAAGCUTT against Ret | inactive: 1.48
GGAAAGACACAGAUAAUAATT against Arvcf | inactive: -1.21
GGUCACAGACAUUCCCGAATT against Atad2 | inactive: 0.184
GGAGACUCAGGAAAAAAUUTT against Olfr1424 | inactive: 0.238
GAUAAAAUCGGACUGAUAATT against Olfr1079 | inactive: 0.959
GCCUUAAUGAGGCUACUAGTT against Art2a | inactive: -0.0101
GGCAAAAGAACAAGAAACUTT against Orc1l | inactive: -0.536
GGAAGUGACCUGUCUGAAGTT against D7Bwg0611e | inactive: -0.874
GGUGCAGAGAAGAACAAGATT against Inpp1 | inactive: 2.6
GGGUGACCUUGAUUCACACTT against Cda | inactive: 0.199
GGUGGAUAUCCUAUAACUATT against 4930402H24Rik | inactive: 0.631
GCCAUACUACGACAUGACATT against Sstr2 | inactive: 0.21
CCCGUGUCUAUGUGAAAAUTT against Olfr1015 | inactive: -2.5
GGCCUAGCUGUAUGUUUAGTT against Tex19 | inactive: -0.148
CCAAAGAGAUAUCCCUCCCTT against Olfr1350 | inactive: -0.954
GAGCAGAACCGCAUCAUAUTT against Ucn | inactive: -1.06
GGGUCAUCGGAACAGAACUTT against Sult3a1 | inactive: 0.137

3 consecutive entries out of the list so far, for reference:
Sequence | z-score
GGGUGACCUUGAUUCACACTT against Cda | inactive: 0.199
GGUGGAUAUCCUAUAACUATT against 4930402H24Rik | inactive: 0.631
GCCAUACUACGACAUGACATT against Sstr2 | inactive: 0.21

Later entries.

Sequence | z-score
GGUAGUGGGUGUCAAUGCATT against 9330180L21Rik | inactive: 1.68
GGAAAGACUUACCAGAAUATT against Smarca2 | inactive: 0.313
GGCAAGAUGCACAAGACUUTT against Cacna1s | inactive: -0.328
GGAUAUGCUCAGAGGUUUUTT against Pex11c | inactive: 0.312
GGAUUGCUCUAGCCAUUGUTT against Olfr691 | inactive: 0.116
GGUCAACAGUUACAUCGAGTT against Vps33a | inactive: -0.77
CCUGAACUAUAGAUGGAUUTT against Manba | inactive: -0.266
CCGACUGCUUAAUUACAAGTT against 1700007I06Rik | inactive: 0.104
GGACCAGAAACGCAUGCUUTT against BC049812 | inactive: 0.257
CCUGCUCAGAUCCACAGAATT against Dub2 | inactive: -1.14
GGCUACCAGAAAGAUGUGUTT against D030010E02Rik | inactive: -1.48
GGAGUUUCGCAUGAGCCUGTT against 1300007L22Rik | inactive: 0.888
GGUCCAAAACCAUCAGAAGTT against Plekha5 | inactive: 0.831
GGCAAAAAAAAAAUGCCCATT against Sox2 | inactive: -0.16
CAGAAUUCAGAUAAUCUUGTT against 9230002F21Rik | inactive: 0.209
GGUCAAAACACCUUUAGAUTT against Trip4 | inactive: 0.0551
CGAGCAUGAAAAUUCGGUUTT against Neurog1 | inactive: 0.206
GCACAUUACUCCUUAUUCUTT against Olfr74 | inactive: 0.396
GCUAUGUCAUCGAGGUCCUTT against 2310010M20Rik | inactive: 0.755
GGGUAGACUGUCAGAUUUUTT against Tmc5 | inactive: -0.124
GGAUCUCGGGAAAAAGUUGTT against Spesp1 | inactive: -0.197
CCAAUGACUUCUGGUUAGATT against Tdpoz1 | inactive: -0.311

Sequence | z-score
GCACUGAACUUUCCUGACCTT against 2700038C09Rik | inactive: 0.661
GGACUUUGGACUUUCUAUUTT against 2810013M15Rik | inactive: -1.1
GGGCUCUUUCUACCAAUGUTT against A630077B13Rik | inactive: 0.843
GGAGCAUCCACACUUUGUUTT against Hif3a | inactive: -2.57
GGAAAGCUCUUUGUGUCGGTT against 9130427A09Rik | inactive: -0.287
GGAACUUGGUAUUUAGAUCTT against Rhot2 | inactive: 1.66
CCGUGGAUAACAUGAGCAUTT against Agpat2 | inactive: 2
GGAAGUCAGGUAGUAAAACTT against 2810429K17Rik | inactive: -0.849
GCACCACAAUGAAACGUGCTT against Cacng1 | inactive: -0.26
GGACCUACCAGAAUCUGGUTT against Phip | inactive: 2.04
CGGUAUCUUGGUCAACCUGTT against Asahl | inactive: -0.0295
CCUGGAUGGAUUUAAGGCATT against Abcd4 | inactive: 0.639
GGAGUCAUGGAUGAAUGUATT against 3110057O12Rik | inactive: -2.76
GGAUGAAGAUGGAGACAUGTT against Lmx1b | inactive: 0.668
GGGUCUGAUUGUCAAGGGATT against 1700020C08Rik | inactive: -0.0449
UUAUGACACGCUCAAACUATT against AY238603 | inactive: 1.81
GCAGAUGUGGCAUCUUCCATT against 6430596G11Rik | inactive: -0.159
GGUACUACUUUCUAAUUCATT against Vcam1 | inactive: 0.156
GCUAAGUACGUUCAUGGCATT against Gba | inactive: 3.18
GGUCAACUAGCAGAAACCATT against Mass1 | inactive: 1.6
GGACUUUCUGAGUAAGAAUTT against 2810002N01Rik | inactive: 0.427
CCUAUCCUACUGUCAAGAUTT against Nfkb2 | inactive: 1.76

Source: PubChem BioAssay AID1347423 (Functional Genomics Laboratory (NCATS/FGL), 2020)
